{"source": "PubChem BioAssay AID1259286 (Sanger Institute, 2017)", "purpose": "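Kinase knock-downs that reduce colorectal cancer cell viability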 (primary screen)", "cell system": "NCI-H630 human colorectal cancer cells", "knock-down reagent": "siRNA pool against human genes", "conditions": "anchor drugs BYL719 at 1 µM, cetuximab at 5 µg/ml or trametinib at 10 nM, or DMSO vehicle alone; exposure time not given", "read-out": "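Replicate-averaged viability as a fraction of non-targeting control, knock-down-alone robust z-score, and per-drug synergy scores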", "scale": "viability z-score, knock-down alone: higher = more viable cells, weaker knock-down effect", "hit rule": "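Essential call: robust z-score of viability with siRNA alone lower than -3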", "calls": "active = essential when knocked down alone; inactive = not essential alone", "note": "Here is one part, drawn at random, of 794 reagents tested. Of all reagents, 17 (2.1%) are marked active. 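Calls use knock-down alone only; synergy above 0.15 marked separately; viability seems capped at control level; exposure time not given.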 Not all columns of the deposit are shown. Not given: the amount of reagent, the time to read-out."}
The opening 2 entries as a preview:
{"gene": "MAP2K3 (mitogen-activated protein kinase kinase 3)", "viability z-score, knock-down alone": 0.464, "outcome": "inactive"}
{"gene": "LMTK2 (lemur tail kinase 2)", "viability z-score, knock-down alone": 0.464, "outcome": "inactive"}

Main list, from the start:
{"gene": "MAP2K3 (mitogen-activated protein kinase kinase 3)", "viability z-score, knock-down alone": 0.464, "outcome": "inactive"}
{"gene": "LMTK2 (lemur tail kinase 2)", "viability z-score, knock-down alone": 0.464, "outcome": "inactive"}
{"gene": "STK10 (serine/threonine kinase 10)", "viability z-score, knock-down alone": 0.464, "outcome": "inactive"}
{"gene": "GUCY2EP (guanylate cyclase 2E, pseudogene)", "viability z-score, knock-down alone": 0.464, "outcome": "inactive"}
{"gene": "DSTYK (dual serine/threonine and tyrosine protein kinase)", "viability z-score, knock-down alone": 0.464, "outcome": "inactive"}
{"gene": "CALM1 (calmodulin 1)", "viability z-score, knock-down alone": 0.464, "outcome": "inactive"}
{"gene": "NME2 (NME/NM23 nucleoside diphosphate kinase 2)", "viability z-score, knock-down alone": 0.464, "outcome": "inactive"}
{"gene": "PFKFB4 (6-phosphofructo-2-kinase/fructose-2,6-biphosphatase 4)", "viability z-score, knock-down alone": 0.464, "outcome": "inactive"}
{"gene": "CKMT1B (creatine kinase, mitochondrial 1B)", "viability z-score, knock-down alone": 0.464, "outcome": "inactive"}
{"gene": "NPR2 (natriuretic peptide receptor 2)", "viability z-score, knock-down alone": -0.51, "outcome": "inactive"}
{"gene": "CDKL4 (cyclin dependent kinase like 4)", "viability z-score, knock-down alone": 0.464, "outcome": "inactive"}
{"gene": "SRP72 (signal recognition particle 72)", "viability z-score, knock-down alone": 0.464, "outcome": "inactive"}
{"gene": "CDK7 (cyclin dependent kinase 7)", "viability z-score, knock-down alone": 0.303, "outcome": "inactive"}
{"gene": "ABL2 (ABL proto-oncogene 2, non-receptor tyrosine kinase)", "viability z-score, knock-down alone": -0.148, "outcome": "inactive"}
{"gene": "MAPK4 (mitogen-activated protein kinase 4)", "viability z-score, knock-down alone": -0.523, "outcome": "inactive"}
{"gene": "FGFR3 (fibroblast growth factor receptor 3)", "viability z-score, knock-down alone": 0.464, "outcome": "inactive"}
{"gene": "ULK1 (unc-51 like autophagy activating kinase 1)", "viability z-score, knock-down alone": 0.464, "outcome": "inactive"}
{"gene": "ERBB3 (erb-b2 receptor tyrosine kinase 3)", "viability z-score, knock-down alone": -0.462, "outcome": "inactive"}
{"gene": "SF3B1 (splicing factor 3b subunit 1)", "viability z-score, knock-down alone": -3.07, "outcome": "active"}
{"gene": "NEK7 (NIMA related kinase 7)", "viability z-score, knock-down alone": 0.464, "outcome": "inactive"}
{"gene": "GNE", "viability z-score, knock-down alone": 0.464, "outcome": "inactive"}
{"gene": "CDKN2D (cyclin dependent kinase inhibitor 2D)", "viability z-score, knock-down alone": 0.464, "outcome": "inactive"}
{"gene": "GOLGA5 (golgin A5)", "viability z-score, knock-down alone": 0.0848, "outcome": "inactive"}
{"gene": "GALK1 (galactokinase 1)", "viability z-score, knock-down alone": 0.464, "outcome": "inactive"}
{"gene": "PTK6 (protein tyrosine kinase 6)", "viability z-score, knock-down alone": 0.464, "outcome": "inactive"}
{"gene": "PKIB (cAMP-dependent protein kinase inhibitor beta)", "viability z-score, knock-down alone": 0.464, "outcome": "inactive"}
{"gene": "NRBP2 (nuclear receptor binding protein 2)", "viability z-score, knock-down alone": -0.596, "outcome": "inactive"}
{"gene": "MAP2K4 (mitogen-activated protein kinase kinase 4)", "viability z-score, knock-down alone": 0.464, "outcome": "inactive"}
